These are yes or no findings as the source states them, for the method shown. Binding seen in cells or lysates may run through a third protein. Some results given as binding are weak or reduced against the parent protein; the word gives no strength. Where a sequence is shown, tags or fusion partners need not be part of it.
Tests used:
[1] = molecular target: T1, APC-activated protease-activated receptor-1 fused to yellow fluorescent protein (PAR1-YFP WT after cleavage at R46) (human); assay: FRET or BRET; HEK293 βarr1,2 KO cells expressing PAR1-YFP, EPCR-Halo and 100 ng Nluc-βarr2 or Nluc-βarr1 (WT or dFLR); 1 nM thrombin or 20 nM APC, 37°C
T1 sequence: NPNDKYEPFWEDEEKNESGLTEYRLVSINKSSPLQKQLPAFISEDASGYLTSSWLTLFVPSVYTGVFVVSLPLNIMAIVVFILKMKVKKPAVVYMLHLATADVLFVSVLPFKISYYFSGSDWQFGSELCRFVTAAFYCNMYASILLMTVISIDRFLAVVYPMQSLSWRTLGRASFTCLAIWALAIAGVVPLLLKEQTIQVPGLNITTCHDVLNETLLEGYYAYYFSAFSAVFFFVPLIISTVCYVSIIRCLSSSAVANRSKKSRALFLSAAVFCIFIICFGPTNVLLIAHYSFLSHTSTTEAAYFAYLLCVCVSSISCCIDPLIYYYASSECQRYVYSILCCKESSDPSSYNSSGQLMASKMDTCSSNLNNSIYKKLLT

Amino acid sequences for entries named in this document (tags omitted).
UniProt P49407: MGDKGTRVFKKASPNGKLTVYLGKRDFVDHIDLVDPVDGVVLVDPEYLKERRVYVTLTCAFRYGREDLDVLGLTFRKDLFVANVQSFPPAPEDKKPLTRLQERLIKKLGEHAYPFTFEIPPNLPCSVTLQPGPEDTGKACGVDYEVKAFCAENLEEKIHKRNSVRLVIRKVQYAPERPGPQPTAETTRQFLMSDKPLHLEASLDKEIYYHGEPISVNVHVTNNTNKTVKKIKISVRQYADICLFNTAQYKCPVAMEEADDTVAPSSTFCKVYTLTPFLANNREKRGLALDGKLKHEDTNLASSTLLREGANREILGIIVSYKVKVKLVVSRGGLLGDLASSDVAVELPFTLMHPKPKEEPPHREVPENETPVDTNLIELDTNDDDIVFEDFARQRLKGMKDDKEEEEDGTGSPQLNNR

[2] = molecular target: T1, APC-activated protease-activated receptor-1 fused to yellow fluorescent protein (PAR1-YFP WT after cleavage at R46) (human); assay: condition: only GRK2,3,5,6 KO cells without GRK5 (pcDNA3); FRET or BRET; HEK293 GRK2,3,5,6 KO cells with pcDNA3 instead of GRK5, with PAR1-YFP, EPCR-Halo and Rluc-βarr2; 1 nM thrombin or 20 nM APC, 37°C
[3] = molecular target: T1, APC-activated protease-activated receptor-1 fused to yellow fluorescent protein (PAR1-YFP WT after cleavage at R46) (human); assay: condition: only GRK2,3,5,6 KO cells with catalytically inactive GRK5 K215R; FRET or BRET; HEK293 GRK2,3,5,6 KO cells expressing catalytically inactive GRK5 K215R, with PAR1-YFP, EPCR-Halo and Rluc-βarr2; 1 nM thrombin or 20 nM APC, 37°C
[4] = molecular target: T2, thrombin-activated protease-activated receptor-1 fused to yellow fluorescent protein (PAR1-YFP WT after cleavage at R41) (human); assay: as above
T2 sequence: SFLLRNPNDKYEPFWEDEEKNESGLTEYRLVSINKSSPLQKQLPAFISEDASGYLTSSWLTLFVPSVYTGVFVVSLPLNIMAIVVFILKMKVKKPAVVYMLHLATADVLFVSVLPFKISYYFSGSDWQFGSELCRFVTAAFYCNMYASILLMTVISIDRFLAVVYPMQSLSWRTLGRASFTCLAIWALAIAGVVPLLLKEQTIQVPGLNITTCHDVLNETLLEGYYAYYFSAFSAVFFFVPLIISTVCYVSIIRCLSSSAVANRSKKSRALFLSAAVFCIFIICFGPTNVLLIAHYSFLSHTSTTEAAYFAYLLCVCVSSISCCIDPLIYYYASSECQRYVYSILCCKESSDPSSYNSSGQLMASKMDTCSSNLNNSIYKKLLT

[5] = molecular target: T1, APC-activated protease-activated receptor-1 fused to yellow fluorescent protein (PAR1-YFP WT after cleavage at R46) (human); assay: condition: only GRK2,3,5,6 KO cells with the GRK5 4A mutant; FRET or BRET; HEK293 GRK2,3,5,6 KO cells expressing the membrane-localisation-deficient GRK5 4A mutant (also at varied levels), with PAR1-YFP, EPCR-Halo and Rluc-βarr2; 1 nM thrombin or 20 nM APC, 37°C
[6] = molecular target: T2, thrombin-activated protease-activated receptor-1 fused to yellow fluorescent protein (PAR1-YFP WT after cleavage at R41) (human); assay: FRET or BRET; HEK293 GRK2,3,5,6 KO cells with pcDNA3 instead of GRK5, with PAR1-YFP, EPCR-Halo and Rluc-βarr2; 1 nM thrombin or 20 nM APC, 37°C
[7] = molecular target: T1, APC-activated protease-activated receptor-1 fused to yellow fluorescent protein (PAR1-YFP WT after cleavage at R46) (human); assay: FRET or BRET; HEK293 GRK2,3,5,6 KO cells re-expressing GRK5 WT, with PAR1-YFP (WT or mutant), EPCR-Halo and Rluc-βarr2; 1 nM thrombin or 20 nM APC, 37°C
[8] = molecular target: T1, APC-activated protease-activated receptor-1 fused to yellow fluorescent protein (PAR1-YFP WT after cleavage at R46) (human); assay: FRET or BRET; as a1, HEK293 cells without EPCR co-expression, stimulated with APC
[9] = molecular target: T1, APC-activated protease-activated receptor-1 fused to yellow fluorescent protein (PAR1-YFP WT after cleavage at R46) (human); assay: FRET or BRET; as a1, cells pretreated with 10 μM vorapaxar for 30 min
[10] = molecular target: T2, thrombin-activated protease-activated receptor-1 fused to yellow fluorescent protein (PAR1-YFP WT after cleavage at R41) (human); assay: as above
[11] = molecular target: T1, APC-activated protease-activated receptor-1 fused to yellow fluorescent protein (PAR1-YFP WT after cleavage at R46) (human); assay: FRET or BRET; HEK293 parental cells expressing PAR1-YFP (WT or mutant), Rluc-βarr2 and EPCR(-Halo) (thrombin also without EPCR); 5 μM coelenterazine H, then 1 nM thrombin or 20 nM APC; BRET (530/480 nm) over time at 37°C, percent over basal
[12] = molecular target: T2, thrombin-activated protease-activated receptor-1 fused to yellow fluorescent protein (PAR1-YFP WT after cleavage at R41) (human); assay: FRET or BRET; HEK293 βarr1,2 KO cells expressing PAR1-YFP, EPCR-Halo and 100 ng Nluc-βarr2 or Nluc-βarr1 (WT or dFLR); 1 nM thrombin or 20 nM APC, 37°C

For “Nanoluciferase (Nluc)-tagged β-arrestin-2 WT (from UniProt P32121 1-409)”, the binding [1] was “binds”.
In the case of “Renilla luciferase (Rluc)-tagged β-arrestin-2 (from UniProt P32121 1-409)”, the binding [2] is reported as “no binding”, the binding [3] is reported as “no binding” and the binding [4] is reported as “no binding”. The binding [5] was “no binding”, the binding [6] was “no binding (condition: GRK2,3,5,6 KO cells without GRK5)” and the binding [7] was “binds”. The binding [8] was “no binding (condition: cells lacking EPCR expression)”, the binding [9] was “no binding (condition: with 10 μM vorapaxar)” and the binding [10] was “no binding (condition: with 10 μM vorapaxar)”. The binding [11] was “binds”.
For “Nanoluciferase (Nluc)-tagged β-arrestin-1 WT (from UniProt P49407 1-418)”, the binding [12] was “binds”.

Reference: paper PMC13091039
